This passage reports binding results from publication PMC9992712.

Amino acid sequences for entries named in this document (tags omitted). A change or cut given only in a name is not applied to a line headed by its entry.
UniProt P25705: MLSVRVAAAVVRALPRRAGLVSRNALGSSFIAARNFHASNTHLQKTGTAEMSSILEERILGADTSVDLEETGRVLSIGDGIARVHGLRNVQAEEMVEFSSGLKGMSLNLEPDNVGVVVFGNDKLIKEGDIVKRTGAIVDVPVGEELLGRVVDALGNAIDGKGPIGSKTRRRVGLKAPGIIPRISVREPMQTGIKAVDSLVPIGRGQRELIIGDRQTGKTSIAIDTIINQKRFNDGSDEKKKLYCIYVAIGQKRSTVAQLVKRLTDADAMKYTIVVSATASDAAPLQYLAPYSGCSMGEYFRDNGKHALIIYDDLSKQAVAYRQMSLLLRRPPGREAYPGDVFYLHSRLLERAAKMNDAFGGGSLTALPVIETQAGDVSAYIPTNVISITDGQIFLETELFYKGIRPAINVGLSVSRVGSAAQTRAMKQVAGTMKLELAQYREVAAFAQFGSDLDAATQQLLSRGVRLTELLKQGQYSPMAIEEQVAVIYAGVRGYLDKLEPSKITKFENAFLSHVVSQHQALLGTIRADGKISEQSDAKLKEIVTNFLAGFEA
UniProt O75964: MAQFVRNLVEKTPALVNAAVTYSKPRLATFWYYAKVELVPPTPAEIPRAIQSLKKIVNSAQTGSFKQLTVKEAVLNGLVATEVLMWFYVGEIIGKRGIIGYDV

These are yes or no findings as the source states them, for the method shown. Some entries that bind do so weakly or less than the wild type.

The target of the assay is human ATP synthase dimer (human (endogenous in HEK293T)) (UniProt P25705). Briefly: native gel or EMSA; 2D BN-PAGE/SDS-PAGE with mass spectrometry: HEK293T mitochondria (400 µg protein) extracted with 2% digitonin, dimers and monomers separated on 3-12% gradient gel, SDS-PAGE in the second dimension, 5-20 kDa bands analysed by mass spectrometry. Background: In EMSA bound probe runs differently from free probe, usually more slowly.

With “human ATP synthase subunit g (from UniProt O75964 1-103)”, the binding result is recorded as “binds”.
